Record: PubChem BioAssay AID493246 (Drosophila RNAi Screening Center, 2011)

Test: 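Genome-wide search for dsRNAs that reduce cell number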 (primary screen)
Cells: Drosophila Kc and S2R+ cells
Reagent: long dsRNA against Drosophila genes
Read-out: 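Cell number per well after knock-down, printed as raw plate values; calls were based on per-plate z-scores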
Reading the numbers: Kc cell number and S2R+ cell number: higher = more cells remaining
Active means: 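Counted as a hit if cell number falls by a z-score of at least 3 within its plate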
The screen tested about 21,000 reagents; shown is a random part of those with a known target gene and a result. Of all reagents, 429 (2%) are marked active. 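Values are raw and not normalised between plates; calls rest on per-plate z-scores that were not deposited.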 The numbers tell different reagents against one gene apart. Names joined by + are all predicted targets of the reagent. Reagent sequences are not shown. The record does not give: the amount of reagent, the time to read-out.

With CheA75a, what does the deposit list?
Kc cell number, rep 1: 1.52e6; Kc cell number, rep 2: 1.48e6; S2R+ cell number, rep 1: 1.25e6; S2R+ cell number, rep 2: 1.33e6; outcome: inactive

Which result is listed for CG9021?
Kc cell number, rep 1: 1.28e6; Kc cell number, rep 2: 1.29e6; S2R+ cell number, rep 1: 6.49e5; S2R+ cell number, rep 2: 7.07e5; outcome: inactive

What is on record for MESK2?
Kc cell number, rep 1: 1.54e6; Kc cell number, rep 2: 1.65e6; S2R+ cell number, rep 1: 1.27e6; S2R+ cell number, rep 2: 3.12e5; outcome: inactive

What did the screen give for CG8677 + CG31626?
Kc cell number, rep 1: 1.60e6; Kc cell number, rep 2: 1.63e6; S2R+ cell number, rep 1: 1.11e6; S2R+ cell number, rep 2: 1.17e6; outcome: inactive

With CG13484, how do the results read?
Kc cell number, rep 1: 1.53e6; Kc cell number, rep 2: 1.52e6; S2R+ cell number, rep 1: 1.02e6; S2R+ cell number, rep 2: 1.28e6; outcome: inactive

Which result is listed for Dpy-30L1?
Kc cell number, rep 1: 1.50e6; Kc cell number, rep 2: 1.54e6; S2R+ cell number, rep 1: 1.29e6; S2R+ cell number, rep 2: 1.44e6; outcome: inactive

Which result is listed for LRP1?
Kc cell number, rep 1: 1.46e6; Kc cell number, rep 2: 1.51e6; S2R+ cell number, rep 1: 1.23e6; S2R+ cell number, rep 2: 1.40e6; outcome: inactive

What did the screen give for wal?
Kc cell number, rep 1: 1.20e6; Kc cell number, rep 2: 1.39e6; S2R+ cell number, rep 1: 1.12e6; S2R+ cell number, rep 2: 1.16e6; outcome: inactive

What is on record for stc?
Kc cell number, rep 1: 1.22e6; Kc cell number, rep 2: 1.35e6; S2R+ cell number, rep 1: 1.28e6; S2R+ cell number, rep 2: 1.28e6; outcome: inactive

What is on record for Act57B?
Kc cell number, rep 1: 1.13e6; Kc cell number, rep 2: 1.25e6; S2R+ cell number, rep 1: 9.47e5; S2R+ cell number, rep 2: 1.03e6; outcome: inactive

What is on record for CG34005?
Kc cell number, rep 1: 5.45e5; S2R+ cell number, rep 1: 7.97e5; outcome: inactive

For CG1695, what does the deposit list?
Kc cell number, rep 1: 1.43e6; Kc cell number, rep 2: 1.52e6; S2R+ cell number, rep 1: 1.07e6; S2R+ cell number, rep 2: 1.13e6; outcome: inactive

For neo, what does the deposit list?
Kc cell number, rep 1: 5.43e5; S2R+ cell number, rep 1: 8.15e5; outcome: inactive

What did the screen give for Loxl2?
Kc cell number, rep 1: 1.43e6; Kc cell number, rep 2: 1.50e6; S2R+ cell number, rep 1: 8.57e5; S2R+ cell number, rep 2: 9.75e5; outcome: inactive

What did the screen give for mnd?
Kc cell number, rep 1: 1.44e6; Kc cell number, rep 2: 1.45e6; S2R+ cell number, rep 1: 1.22e6; S2R+ cell number, rep 2: 1.35e6; outcome: inactive

What is on record for Usp16-45?
Kc cell number, rep 1: 5.55e5; S2R+ cell number, rep 1: 8.68e5; outcome: inactive

For Ugt35C1, how do the results read?
Kc cell number, rep 1: 1.79e6; Kc cell number, rep 2: 1.93e6; S2R+ cell number, rep 1: 1.42e6; S2R+ cell number, rep 2: 1.57e6; outcome: inactive

For Or85b, what does the deposit list?
Kc cell number, rep 1: 1.56e6; Kc cell number, rep 2: 1.85e6; S2R+ cell number, rep 1: 1.33e6; S2R+ cell number, rep 2: 1.56e6; outcome: inactive

For SmydA-6, what does the deposit list?
Kc cell number, rep 1: 1.52e6; Kc cell number, rep 2: 1.50e6; S2R+ cell number, rep 1: 1.23e6; S2R+ cell number, rep 2: 1.36e6; outcome: inactive

With scrt, what was measured?
Kc cell number, rep 1: 1.25e6; Kc cell number, rep 2: 1.27e6; S2R+ cell number, rep 1: 4.55e5; S2R+ cell number, rep 2: 5.62e5; outcome: active

For CG7236, how do the results read?
Kc cell number, rep 1: 1.62e6; Kc cell number, rep 2: 1.72e6; S2R+ cell number, rep 1: 1.04e6; S2R+ cell number, rep 2: 1.18e6; outcome: inactive

With CG10912, what was measured?
Kc cell number, rep 1: 1.43e6; Kc cell number, rep 2: 1.39e6; S2R+ cell number, rep 1: 1.10e6; S2R+ cell number, rep 2: 1.15e6; outcome: inactive

With CG40198, what does the deposit list?
Kc cell number, rep 1: 1.55e6; Kc cell number, rep 2: 1.69e6; S2R+ cell number, rep 1: 1.03e6; S2R+ cell number, rep 2: 1.17e6; outcome: inactive

For CG33937 (retired record), what does the deposit list?
Kc cell number, rep 1: 1.84e6; Kc cell number, rep 2: 1.88e6; S2R+ cell number, rep 1: 1.33e6; S2R+ cell number, rep 2: 1.51e6; outcome: inactive

What is on record for sand?
Kc cell number, rep 1: 1.56e6; Kc cell number, rep 2: 1.55e6; S2R+ cell number, rep 1: 1.30e6; S2R+ cell number, rep 2: 1.39e6; outcome: inactive

With Tnpo, what does the deposit list?
Kc cell number, rep 1: 1.29e6; Kc cell number, rep 2: 1.34e6; S2R+ cell number, rep 1: 9.85e5; S2R+ cell number, rep 2: 1.00e6; outcome: inactive

With smog #1, what was measured?
Kc cell number, rep 1: 1.60e6; Kc cell number, rep 2: 1.41e6; S2R+ cell number, rep 1: 1.08e6; S2R+ cell number, rep 2: 1.27e6; outcome: inactive

Which result is listed for smog #2?
Kc cell number, rep 1: 1.65e6; Kc cell number, rep 2: 1.50e6; S2R+ cell number, rep 1: 8.94e5; S2R+ cell number, rep 2: 1.03e6; outcome: inactive

2 successive records from above, quoted:
CG13484 — Kc cell number, rep 1 = 1.53e6; Kc cell number, rep 2 = 1.52e6; S2R+ cell number, rep 1 = 1.02e6; S2R+ cell number, rep 2 = 1.28e6; outcome = inactive
Dpy-30L1 — Kc cell number, rep 1 = 1.50e6; Kc cell number, rep 2 = 1.54e6; S2R+ cell number, rep 1 = 1.29e6; S2R+ cell number, rep 2 = 1.44e6; outcome = inactive
